Experimental data as given in PubChem BioAssay AID624405 (Broad Institute, 2012).
Hit rate of the full screen: of about 1,900 compounds, about 250 (13%) were called active. Roughly 4% stayed inconclusive and do not appear here.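 The calls were made as follows: active = fitted curve reaches 40% rescue activity at or below the top valid dose, in every test run; inconclusive = test runs disagree, some active and some inactive; inactive = every run misses the threshold or moves the wrong way.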 The list shows a part of the results, in another mix than the full data. Potency and affinity values are given separately.

Assay: rescue of simvastatin-induced ATP loss – cell-based, C2C12 myotubes, ATP luminescence, cherry pick, dose response (AID 624405);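 also: myotubes are challenged with simvastatin at 10 µM to lower ATP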
Settings: 48 h, scaled: DMSO wells 0, geranylgeraniol wells 100; at 19.5 µM (top of the series) unless noted

Structure (SMILES) | rescue activity (ATP increase)
COCCn1nnnc1C(c1ccccc1)N1CCN(Cc2ccc3c(c2)OCO3)CC1 (stereo not given) | inactive: 12.2%
O=c1[nH]c(N2CCOCC2)nc2c1CCCC2 | inactive: 36.9%
Cn1nnc2c(sc3nc(N4CCOCC4)c4c(c32)CCCC4)c1=O | inactive: 1.91%
c1cc2cc(-c3c(-c4ccc5c(c4)OCO5)noc3-c3ccsc3)ccc2[nH]1 | inactive: 4.15%
Cc1cc(N2CCN(c3ccccc3)CC2)n2nnnc2n1 | inactive: 7.84%
C[C@@H]1CN([C@H](C)CO)C(=O)Cc2cc(NC(=O)Nc3cccc4ccccc34)ccc2O[C@@H]1CN(C)S(=O)(=O)c1cccs1 | inactive: 9.53%
CCOC(=O)N1CCN(C(=O)Cc2ccsc2)CC1 | inactive: -30.6%
COc1ccc(C(=O)N2C[C@@H]3[C@H](c4ccccc42)[C@@H](CO)N3Cc2ccccc2)cc1 | inactive: -1.26% [at 21 µM]
COc1ccc(S(=O)(=O)N(C)C[C@@H]2OCCCC[C@H](C)Oc3ccc(NC(=O)Nc4c(C)noc4C)cc3C(=O)N([C@@H](C)CO)C[C@H]2C)cc1 | inactive: -10.9%
Cc1ccc2nc(Nc3ccccc3O)nc(-c3ccccc3)c2c1 | inactive: 26.1%
CCN(CC)Cc1csc2ccc(Br)cc12 | inactive: -7.24%
Cc1noc(C)c1NC(=O)Nc1ccc2c(c1)CC(=O)N([C@H](C)CO)C[C@H](C)[C@@H](CN(C)Cc1ccc(-c3ccccc3)cc1)O2 | inactive: 12.7%
CCOc1ccccc1NC(=O)Cn1cnc2c(cnn2-c2ccc(C)c(C)c2)c1=O | inactive: -30.8%
CCOC(=O)C1=NN(C(=O)Nc2ccc(OC)cc2)C2C(=O)N(c3cccc(C(F)(F)F)c3)C(=O)C12 (stereo not given) | inactive: -0.776%
C[C@H](CO)N1C[C@H](C)[C@H](CN(C)Cc2ccc(Oc3ccccc3)cc2)Oc2ccc(NC(=O)Nc3ccc(F)cc3)cc2CC1=O | inactive: -9.22% [at 21 µM]
Cc1nc(CSc2ccc(Cl)cc2)cc(N2CC(C)OC(C)C2)n1 (stereo not given) | inactive: -17.7%
Cc1nc2nc(CSc3nnc(C)s3)cc(=O)n2[nH]1 | inactive: 22.8%
COc1ccc(NC(=O)Nc2ccc3c(c2)C(=O)N([C@H](C)CO)C[C@@H](C)[C@@H](CN(C)Cc2ccc(C(F)(F)F)cc2)OCCCC[C@H](C)O3)cc1 | inactive: 8.75% [at 10 µM]
C[C@@H]1CCCCO[C@@H](CN(C)C(=O)C2CCCCC2)[C@H](C)CN([C@@H](C)CO)C(=O)c2cc(NC(=O)c3ccncc3)ccc2O1 | inactive: 23.3%
Cc1c(NC(=O)C(C)OC(=O)COc2cccc3c2OC(C)(C)C3)c(=O)n(-c2ccccc2)n1C (stereo not given) | inactive: 16.2%
COc1cc(-c2noc(-c3ccccc3C(=O)NCc3ccco3)n2)cc(OC)c1OC | inactive: 15.9%
Cc1ccc(-c2csc(-c3c[nH]c4ccccc34)n2)cc1 | inactive: -86.9%
COc1ccc(S(=O)(=O)Nc2ccc3c(c2)C(=O)N([C@@H](C)CO)C[C@@H](C)[C@@H](CN(C)Cc2ccc4c(c2)OCO4)OCCCC[C@H](C)O3)cc1 | inactive: -18.4%
Cc1cc(NC(=O)COC(=O)C2CCN(C(=O)c3ccc(Cl)cc3)CC2)no1 | inactive: -12.9%

Individual results from the list.
rescue activity (ATP increase), CCOC(=O)N1CCN(C(=O)Cc2ccsc2)CC1 reads inactive: -30.6%
rescue activity (ATP increase), Cc1c(NC(=O)C(C)OC(=O)COc2cccc3c2OC(C)(C)C3)c(=O)n(-c2ccccc2)n1C (stereo not given) reads inactive: 16.2%
rescue activity (ATP increase), Cc1nc2nc(CSc3nnc(C)s3)cc(=O)n2[nH]1 reads inactive: 22.8%
rescue activity (ATP increase), c1cc2cc(-c3c(-c4ccc5c(c4)OCO5)noc3-c3ccsc3)ccc2[nH]1 reads inactive: 4.15%

(next part)

Structure (SMILES) | rescue activity (ATP increase)
C[C@@H]1CCCCO[C@@H](CN(C)C(=O)Nc2cccc3ccccc23)[C@H](C)CN([C@@H](C)CO)C(=O)c2cc(NC(=O)c3ccncc3)ccc2O1 | inactive: 3.44%
COc1ccc(S(=O)(=O)Nc2cccc3c2O[C@H](CN(C)C(=O)Nc2ccc(C(F)(F)F)cc2)[C@H](C)CN([C@H](C)CO)C3=O)cc1 | inactive: 36.2%
CCN(CC)C(=O)CSc1ccccc1N | inactive: 7.47%
CCOC(=O)c1c(N)c(C#N)c2n1CCCC2 | inactive: -5.84%
Cc1ccc(CSc2nnc3nc(C)cc(C)n23)cc1 | inactive: -2.42%
CC(C)c1ccc(NS(=O)(=O)c2ccc(-n3cccn3)cc2)cc1 | inactive: 7.18%
COc1ccc(S(=O)(=O)Nc2cccc3c2O[C@@H](CN(C)C(=O)Nc2ccc(F)cc2)[C@H](C)CN([C@@H](C)CO)C3=O)cc1 | inactive: 2.58%
C[C@@H]1CN([C@H](C)CO)C(=O)c2cccc(NS(=O)(=O)c3cccs3)c2O[C@H]1CN(C)C(=O)Nc1ccc(C(F)(F)F)cc1 | inactive: -9.09%
COc1ccc(NC(=O)Nc2ccc3c(c2)C(=O)N([C@@H](C)CO)C[C@H](C)[C@H](CN(C)Cc2ccc(C(F)(F)F)cc2)OCCCC[C@H](C)O3)cc1 | inactive: -13.3%
CCc1nc2ccccc2n(CCOCCOCCn2c(=O)c(CC)nc3ccccc32)c1=O | inactive: -42.8%
C[C@H]1CCCCO[C@H](CN(C)C(=O)Nc2cccc3ccccc23)[C@@H](C)CN([C@@H](C)CO)C(=O)c2cc(NC(=O)Nc3ccc4c(c3)OCO4)ccc2O1 | inactive: 11.2% [at 21 µM]
C[C@@H]1CN([C@@H](C)CO)C(=O)c2cc(NC(=O)Cc3ccccc3)ccc2O[C@@H](C)CCCCO[C@H]1CN(C)C(=O)C1CCCCC1 | inactive: 5.55%
CSc1nc(NC(C)=O)nc(C)c1Cl | inactive: 9.43%
COc1cc(C(=O)OCCN2CCOCC2)ccc1O | inactive: 0.799%
O=C(CSc1ccc2c(c1)OCCO2)Nc1ccc(Br)cc1 | inactive: 38.9%
O=C(Nc1cccc(-n2cnnn2)c1)c1ccco1 | inactive: 11%
CCOC(=O)C1(C)NC(c2ccc(N(C)C)cc2)C2C(=O)N(c3ccc(OC)cc3)C(=O)C21 (stereo not given) | inactive: -13.4%
COc1ccc(S(=O)(=O)Nc2ccc3c(c2)C(=O)N([C@@H](C)CO)C[C@H](C)[C@H](CN(C)S(=O)(=O)c2ccc(F)cc2)OCCCC[C@H](C)O3)cc1 | inactive: -20%
C[C@@H]1CCCCO[C@@H](CN(C)Cc2ccccc2)[C@@H](C)CN([C@H](C)CO)C(=O)c2cc(NC(=O)Nc3ccc4c(c3)OCO4)ccc2O1 | inactive: -8.81%
C[C@H](CO)N1C[C@H](C)[C@H](CN(C)C(=O)C2CCCCC2)Oc2ncc(C#CC3CCCCC3)cc2C1=O | inactive: -3.25%
COc1ccccc1-c1noc(-c2ccncc2)n1 | inactive: 8.68%
CN1c2ccc(Br)cc2[C@H]2[C@H](CCN2C(=O)C2CC2)[C@H]1CO | inactive: 36.7% [at 21 µM]
COc1ccc(C#Cc2ccc([C@H]3[C@H]4CN(C(=O)c5ccncc5)CCCCN4[C@H]3CO)cc2)cc1 | inactive: 28.5% [at 21 µM]
Cc1[nH]nc2c1C(c1ccsc1)C(C#N)=C(N)O2 (stereo not given) | inactive: 15.8%

Structure (SMILES) | rescue activity (ATP increase)
Cc1cc(C)c2c(CN3CCN(Cc4ccc5c(c4)OCO5)CC3)cc(=O)oc2c1 | inactive: 3.37%
O=C(COc1ccccc1)Nc1nn[nH]n1 | inactive: 21.2%
Cc1oc(C(=O)O)cc1COc1cccc2cccnc12 | inactive: -12.5%
O=c1c2c([nH]c3ccc(Br)cc13)CCCC2 | inactive: -17.7%
COc1ccc(S(=O)(=O)Nc2cccc3c2O[C@H](CN(C)S(=O)(=O)c2ccc(Cl)cc2)[C@H](C)CN([C@@H](C)CO)C3=O)cc1 | inactive: 23%
COC(=O)CCC(=O)NNC(=O)c1ccc(Br)cc1 | inactive: -6.21%
CCCOc1cc(C)c(Cl)cc1S(=O)(=O)N(CC)CC | inactive: 4.93%
C[C@H](CO)N1C[C@H](C)[C@@H](CN(C)Cc2ccc(Oc3ccccc3)cc2)Oc2ccc(NC(=O)Nc3cccc4ccccc34)cc2CC1=O | inactive: -6.91%
C[C@@H]1CN([C@H](C)CO)S(=O)(=O)c2ccc(/C=C/c3ccccc3)cc2O[C@@H]1CN(C)C(=O)NC1CCCC1 | inactive: 2.94%
C[C@H]1CN([C@@H](C)CO)C(=O)c2cc(NC(=O)c3ccncc3)ccc2O[C@H]1CN(C)Cc1ccc(Oc2ccccc2)cc1 | inactive: -18.6%
O=C(C[C@H]1CC[C@@H]2[C@H](COC[C@H](O)CN2Cc2ccc(Oc3ccccc3)cc2)O1)N1CCN(c2ccccc2)CC1 | inactive: -13.6%
Cc1ccc(Cn2ncc3c(NCCCN(C)C)ncnc32)cc1 | inactive: 23.2%
Nc1cccc2c1C(=O)N(C(=O)c1cccc(S(=O)(=O)N3CCCC3)c1)C2=O | inactive: -5.95%
Cc1noc(C)c1S(=O)(=O)Nc1ccc2c(c1)C(=O)N([C@H](C)CO)C[C@@H](C)[C@@H](CN(C)S(=O)(=O)c1ccc(Cl)cc1)OCCCC[C@H](C)O2 | inactive: -40.2%
C[C@@H]1CCCCO[C@H](CN(C)S(=O)(=O)c2cccs2)[C@@H](C)CN([C@H](C)CO)C(=O)c2cc(NC(=O)Nc3ccc(F)cc3)ccc2O1 | inactive: -0.785% [at 21 µM]
Cc1ccc(S(=O)(=O)N(C)C[C@H]2Oc3ccc(NC(=O)Cc4ccccc4)cc3CC(=O)N([C@@H](C)CO)C[C@@H]2C)cc1 | inactive: 10.6%
C[C@@H]1CN([C@H](C)CO)C(=O)c2cc(NC(=O)Cc3cn(C)c4ccccc34)ccc2O[C@@H]1CN(C)C(=O)Nc1ccc2c(c1)OCO2 | inactive: 1.17%
CCCCNC(=O)c1ccc(CS(=O)(=O)c2cccc(C(F)(F)F)c2)o1 | inactive: 5.19% [at 10 µM]
CCc1nnc(SCC(=O)Nc2ccc(C(C)=O)cc2)nc1CC | inactive: -14.8%
O=C(c1cnccn1)N1CCN(C/C=C/c2ccccc2)CC1 | inactive: 16.1%
C[C@H](CO)N1C[C@H](C)[C@@H](CN(C)Cc2ccc(C(F)(F)F)cc2)Oc2ccc(NC(=O)Cc3ccccc3)cc2CC1=O | inactive: 28.5%
C[C@H](CO)N1C[C@H](C)[C@@H](CN(C)S(=O)(=O)c2ccccc2)OCCCC[C@H](C)Oc2ccc(N(C)C)cc2C1=O | inactive: -3.9%
